# PubChem BioAssay AID504774 | Drosophila RNAi Screening Center | 2011
# Aim: 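Fly genes whose loss alters survival after alkylation damage to DNA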 (primary screen)
# Cell system: Drosophila Kc167 cells
# Knock-down reagent: long dsRNA against Drosophila genes, about 0.25 µg dsRNA per well
# Duration: about 6 days: 3 days knock-down, then 3 days with or without MMS
# Treatment: methyl methanesulphonate 0.004% (w/v) for 3 days after knock-down
# Measured: 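ATP-dependent luminescence as a measure of live cells in MMS-exposed wells, quantile normalised within each plate, with replicate values also given as a mean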
# Reading the numbers: mean viability with MMS and viability with MMS: higher = more surviving cells after MMS
# The deposit covers about 23,000 reagents; this is an unselected part of those that have a named target and a result. 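Values are quantile-normalised luminescence on an arbitrary scale; higher means more cells surviving MMS.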 The numbers tell different reagents against one gene apart. Names joined by + are all predicted targets of the reagent. Not all columns of the deposit are shown.
gene knocked down,reagent,mean viability with MMS,"viability with MMS, replicate 1"
Eb1 (GeneID 35584),1,3.45e6,3.91e6
Ppm1 (GeneID 38071),1,3.55e6,3.98e6
CG14644 (GeneID 40536),1,3.58e6,4.04e6
Krn (GeneID 326198),1,3.42e6,3.88e6
eIF3d2 (GeneID 41475),1,3.50e6,3.98e6
Dim1 (GeneID 33645),1,3.18e6,3.55e6
fs(1)N (GeneID 45973),1,3.47e6,4.03e6
Tasp1 (GeneID 39757),1,3.53e6,3.99e6
CG12259 (GeneID 43347),1,3.56e6,4.04e6
CG12259 (GeneID 43347),2,3.55e6,4.01e6
CG11777 (GeneID 36108),1,3.60e6,4.08e6
tim (GeneID 33571),1,3.62e6,4.28e6
CG9933 (GeneID 34700),1,3.56e6,4.08e6
Pgant2 (GeneID 33556),1,3.67e6,4.13e6
btl (GeneID 39564),1,3.45e6,3.97e6
Syn2 (GeneID 36848),1,3.69e6,4.20e6
Spn42Db (GeneID 35599),1,3.49e6,4.07e6
ppk11 (GeneID 34299),1,3.46e6,3.86e6
yellow-h (GeneID 43779),1,3.58e6,4.08e6
PGRP-LA (GeneID 39062),1,3.61e6,4.22e6
PGRP-LA (GeneID 39062),2,3.50e6,4.13e6
loqs (GeneID 34751),1,3.50e6,4.02e6
CG14102 (GeneID 40156),1,3.59e6,4.11e6
cd (GeneID 42681),1,3.74e6,4.32e6
Vm32E (GeneID 34558),1,3.56e6,3.96e6
Gart (GeneID 33986),1,3.53e6,4.22e6
Or69a (GeneID 2768964),1,3.56e6,4.06e6
Vdup1 (GeneID 38023),1,3.57e6,4.01e6
CG33272 (GeneID 2768958),1,3.39e6,3.81e6
fsd (GeneID 36463),1,3.73e6,4.03e6
CARPA (GeneID 31687),1,3.37e6,3.67e6
CARPA (GeneID 31687),2,3.55e6,4.04e6
NSD (GeneID 43351),1,3.47e6,3.86e6
etaTry (GeneID 36217),1,3.53e6,4.09e6
Sodq (GeneID 43133),1,3.64e6,4.09e6
CG4928 (GeneID 32682),1,3.58e6,4.17e6
SPR (GeneID 31463),1,3.65e6,4.10e6
SPR (GeneID 31463),2,4.10e6,4.60e6
SPR (GeneID 31463),3,3.78e6,4.31e6
SPR (GeneID 31463),4,3.47e6,3.95e6
Prosalpha2 (GeneID 41531),1,3.24e6,3.82e6
mud (GeneID 44839),1,3.70e6,4.19e6
gsb (GeneID 38005),1,3.59e6,4.09e6
CG8665 (GeneID 35407),1,3.46e6,3.79e6
CG4151 (GeneID 31465),1,3.60e6,4.04e6
jb (GeneID 33032),1,3.56e6,4.11e6
Rcd6 (GeneID 37332),1,3.47e6,3.86e6
Cbl (GeneID 38961),1,3.71e6,4.14e6
Cbl (GeneID 38961),2,3.44e6,3.85e6
CG4741 (GeneID 37939),1,3.57e6,4.10e6
C1GalTA (GeneID 34215),1,3.57e6,4.28e6
eca (GeneID 41177),1,3.62e6,3.90e6
CG7668 (GeneID 40190),1,3.66e6,4.20e6
CecB (GeneID 43598),1,3.45e6,3.72e6
Ref2 (GeneID 34667),1,3.74e6,4.30e6
CG5882 (GeneID 43269),1,3.60e6,4.17e6
raw (GeneID 44851),1,3.39e6,3.89e6
raw (GeneID 44851),2,3.35e6,3.73e6
snz (GeneID 31704),1,3.49e6,3.79e6
lolal (GeneID 44703),1,3.55e6,4.10e6
CG14968 (GeneID 38406),1,3.54e6,3.86e6
CG32645 (GeneID 32264),1,3.66e6,4.11e6
CG32645 (GeneID 32264),2,3.52e6,3.96e6
CG9667 (GeneID 40960),1,3.39e6,3.92e6
Cpr57A + Obp57d,1,3.48e6,4.02e6
Cpr57A + Obp57d,2,3.46e6,3.86e6
CG34026 (GeneID 3885569),1,3.49e6,4.00e6
Dcp-1 (GeneID 37729),1,3.82e6,4.22e6
